Record: PubChem BioAssay AID1508597 (Cure First, 2020)
This is an unselected part of the about 2,100 reagents, in one setting of the screen. 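Calls flag viability under 80% in either arm, not effects specific to rucaparib; the reference for percent is not stated.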 A number with no mark means an inactive call. A reagent listed more than once was tested more than once; the source does not tell the runs apart. Reagent sequences are not shown. The record does not give: the 100% reference.

Assay: 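Genes whose silencing sensitises or protects ovarian cancer cells against rucaparib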 (primary screen)
Cells: human ovarian carcinoma lines grown from tumours: OCI-P5x (papillary serous) and OCI-C5x (clear cell)
Knock-down reagent: siRNA pool against human genes, 1.25 pmol siRNA per well
Time to read-out: 72 h or 96 h, depending on the cell culture
Challenge: rucaparib 20 µM (about IC30) or vehicle, present until read-out
Rucaparib or vehicle: Vehicle
Cell line: OCI-C5x (clear cell)
Measurement: 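ATP luminescence measured at 72 or 96 h according to the culture, then normalised and expressed as percent viability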
Reading the numbers: viability, normalised: higher = more viable cells remaining
Rule for the call: 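Active when normalised viability falls below 80 percent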
Calls: active = viability under 80%; inactive = viability 80% or more

For AK5, technical replicate 1, the values are viability, normalised (%) = 49.9 (active).
With AK5, technical replicate 2 the deposit lists viability, normalised (%) = 34.4 (active).
With AK5, technical replicate 3 the deposit lists viability, normalised (%) = 38.2 (active).
For PRKAG3, technical replicate 1, the values are viability, normalised (%) = 56.8 (active).
With PRKAG3, technical replicate 2 the deposit lists viability, normalised (%) = 71.3 (active).
PRKAG3, technical replicate 3 gave viability, normalised (%) = 49.4 (active).
With AKT3, technical replicate 1 the deposit lists viability, normalised (%) = 94.4.
AKT3, technical replicate 2 gave viability, normalised (%) = 86.1.
For AKT3, technical replicate 3, the values are viability, normalised (%) = 79 (active).
With DHX8, technical replicate 1, the entry reads viability, normalised (%) = 15.4 (active).
For DHX8, technical replicate 2, the entry reads viability, normalised (%) = 18.2 (active).
DHX8, technical replicate 3 scored viability, normalised (%) = 23.2 (active).
AFF3, technical replicate 1 showed viability, normalised (%) = 44.1 (active).
AFF3, technical replicate 2 gave viability, normalised (%) = 51.2 (active).
With AFF3, technical replicate 3 the deposit lists viability, normalised (%) = 39.2 (active).
With HMGB2, technical replicate 1, the values are viability, normalised (%) = 50.8 (active).
HMGB2, technical replicate 1 gave viability, normalised (%) = 39.8 (active).
HMGB2, technical replicate 2 gave viability, normalised (%) = 53.1 (active).
HMGB2, technical replicate 2 showed viability, normalised (%) = 65.1 (active).
For HMGB2, technical replicate 3, the values are viability, normalised (%) = 63.8 (active).
With HMGB2, technical replicate 3 the deposit lists viability, normalised (%) = 50.3 (active).
SIRT2, technical replicate 1 showed viability, normalised (%) = 24.3 (active).
SIRT2, technical replicate 2 scored viability, normalised (%) = 28.8 (active).
SIRT2, technical replicate 3 gave viability, normalised (%) = 30.8 (active).
CLP1, technical replicate 1 showed viability, normalised (%) = 33.4 (active).
CLP1, technical replicate 2 scored viability, normalised (%) = 50.7 (active).
For CLP1, technical replicate 3 the deposit lists viability, normalised (%) = 35.2 (active).
For DDX17, technical replicate 1, the values are viability, normalised (%) = 56.3 (active).
DDX17, technical replicate 1 scored viability, normalised (%) = 38.3 (active).
DDX17, technical replicate 2 showed viability, normalised (%) = 50.7 (active).
DDX17, technical replicate 2 showed viability, normalised (%) = 31.4 (active).
DDX17, technical replicate 3 scored viability, normalised (%) = 66.7 (active).
DDX17, technical replicate 3 gave viability, normalised (%) = 53.5 (active).
PRDM7, technical replicate 1 scored viability, normalised (%) = 41.4 (active).
PRDM7, technical replicate 2 gave viability, normalised (%) = 39.1 (active).
PRDM7, technical replicate 3 showed viability, normalised (%) = 39.1 (active).
With GTF2H2, technical replicate 1, the entry reads viability, normalised (%) = 56.3 (active).
For GTF2H2, technical replicate 2, the values are viability, normalised (%) = 58.9 (active).
GTF2H2, technical replicate 3 showed viability, normalised (%) = 41.5 (active).
For H4C3, technical replicate 1 the deposit lists viability, normalised (%) = 41.4 (active).
H4C3, technical replicate 2 showed viability, normalised (%) = 41.9 (active).
H4C3, technical replicate 3 gave viability, normalised (%) = 34.4 (active).

Individual results from above:
Entry for PRKAG3, technical replicate 3 in “viability, normalised (%)”: 49.4 (active)
AKT3, technical replicate 3, viability, normalised (%) → 79 (active)
AFF3, technical replicate 1, viability, normalised (%) → 44.1 (active)
H4C3, technical replicate 1, viability, normalised (%): 41.4 (active)
For “viability, normalised (%)”, AFF3, technical replicate 2 shows 51.2 (active)
